Assay results taken from patent EP1793002A1 (priority 2004, dated 2006).
At least one read-out could not be matched to a standard name with certainty.

Sequences of proteins named here, by UniProt entry; tags and fusion partners are left off.
UniProt P08659, whole entry: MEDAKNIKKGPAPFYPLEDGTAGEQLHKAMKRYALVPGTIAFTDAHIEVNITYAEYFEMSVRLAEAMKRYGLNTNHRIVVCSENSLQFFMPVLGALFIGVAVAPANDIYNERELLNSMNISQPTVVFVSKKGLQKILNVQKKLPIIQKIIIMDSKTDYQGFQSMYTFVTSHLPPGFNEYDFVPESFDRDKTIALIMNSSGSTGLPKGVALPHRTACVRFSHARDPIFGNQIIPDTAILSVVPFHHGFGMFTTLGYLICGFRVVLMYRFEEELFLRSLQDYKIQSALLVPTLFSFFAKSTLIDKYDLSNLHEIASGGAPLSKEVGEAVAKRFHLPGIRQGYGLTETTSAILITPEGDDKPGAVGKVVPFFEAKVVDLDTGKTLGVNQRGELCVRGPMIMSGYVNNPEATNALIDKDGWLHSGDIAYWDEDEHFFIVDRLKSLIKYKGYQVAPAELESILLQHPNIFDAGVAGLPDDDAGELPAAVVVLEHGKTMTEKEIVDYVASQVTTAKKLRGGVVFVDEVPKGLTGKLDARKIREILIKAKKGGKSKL

Biological target: luciferase standard enzyme (Photinus pyralis, UniProt P08659)
Conditions: with organic sulfur reagent, pyrophosphate not added

## CCN(CC)C(=S)[S][Na]
  luminescence half-life: around 50 minutes
